# Measured values taken from the supplement of paper PMC10849652.
# Protein sequences, listed by entry. Tags and fused reporters are not part of them. Lines headed by an entry give the natural chain unless they say otherwise; changes in a name come on top.
# UniProt Q6N063: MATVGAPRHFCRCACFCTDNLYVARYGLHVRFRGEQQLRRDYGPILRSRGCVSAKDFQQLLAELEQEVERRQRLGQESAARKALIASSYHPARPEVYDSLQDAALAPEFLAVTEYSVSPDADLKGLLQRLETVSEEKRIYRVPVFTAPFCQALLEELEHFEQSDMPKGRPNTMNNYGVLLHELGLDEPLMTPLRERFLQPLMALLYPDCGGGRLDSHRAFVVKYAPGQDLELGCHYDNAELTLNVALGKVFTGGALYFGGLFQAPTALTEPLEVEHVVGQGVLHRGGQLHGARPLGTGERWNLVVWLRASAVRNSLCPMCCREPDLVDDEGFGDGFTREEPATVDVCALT
# UniProt Q9Y530: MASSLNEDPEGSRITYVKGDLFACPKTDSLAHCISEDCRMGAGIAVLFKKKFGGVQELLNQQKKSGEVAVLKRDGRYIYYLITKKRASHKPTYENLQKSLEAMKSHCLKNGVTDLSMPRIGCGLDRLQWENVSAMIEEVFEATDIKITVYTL
# UniProt Q504Q3: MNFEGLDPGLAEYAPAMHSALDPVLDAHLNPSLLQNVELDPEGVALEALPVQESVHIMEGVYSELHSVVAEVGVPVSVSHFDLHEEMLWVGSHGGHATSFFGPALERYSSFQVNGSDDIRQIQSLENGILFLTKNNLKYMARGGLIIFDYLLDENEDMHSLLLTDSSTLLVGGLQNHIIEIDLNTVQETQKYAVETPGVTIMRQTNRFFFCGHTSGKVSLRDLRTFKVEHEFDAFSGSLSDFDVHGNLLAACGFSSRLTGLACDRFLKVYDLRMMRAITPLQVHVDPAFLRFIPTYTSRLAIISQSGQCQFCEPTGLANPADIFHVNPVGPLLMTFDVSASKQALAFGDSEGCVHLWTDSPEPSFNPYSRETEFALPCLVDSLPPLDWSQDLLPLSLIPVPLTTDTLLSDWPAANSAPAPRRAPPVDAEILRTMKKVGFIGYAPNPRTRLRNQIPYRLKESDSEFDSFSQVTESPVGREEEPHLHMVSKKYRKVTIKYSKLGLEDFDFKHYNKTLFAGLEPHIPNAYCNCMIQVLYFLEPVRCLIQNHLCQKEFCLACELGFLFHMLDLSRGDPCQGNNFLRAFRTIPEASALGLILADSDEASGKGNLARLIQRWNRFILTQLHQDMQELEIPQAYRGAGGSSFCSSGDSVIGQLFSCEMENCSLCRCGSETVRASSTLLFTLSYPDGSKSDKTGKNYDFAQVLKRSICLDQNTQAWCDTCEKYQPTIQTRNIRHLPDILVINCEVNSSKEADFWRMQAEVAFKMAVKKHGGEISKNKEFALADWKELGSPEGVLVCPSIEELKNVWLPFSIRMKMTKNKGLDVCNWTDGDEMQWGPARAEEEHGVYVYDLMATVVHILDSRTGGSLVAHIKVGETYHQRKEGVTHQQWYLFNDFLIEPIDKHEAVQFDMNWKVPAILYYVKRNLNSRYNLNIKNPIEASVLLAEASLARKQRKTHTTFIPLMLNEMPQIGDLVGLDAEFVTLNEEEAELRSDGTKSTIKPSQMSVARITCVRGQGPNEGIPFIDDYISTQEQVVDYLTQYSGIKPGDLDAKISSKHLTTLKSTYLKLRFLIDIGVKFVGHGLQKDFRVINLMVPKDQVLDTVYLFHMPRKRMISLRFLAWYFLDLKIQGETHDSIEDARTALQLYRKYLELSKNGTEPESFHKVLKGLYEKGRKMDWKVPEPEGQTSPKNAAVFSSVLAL
# UniProt Q8NFH4: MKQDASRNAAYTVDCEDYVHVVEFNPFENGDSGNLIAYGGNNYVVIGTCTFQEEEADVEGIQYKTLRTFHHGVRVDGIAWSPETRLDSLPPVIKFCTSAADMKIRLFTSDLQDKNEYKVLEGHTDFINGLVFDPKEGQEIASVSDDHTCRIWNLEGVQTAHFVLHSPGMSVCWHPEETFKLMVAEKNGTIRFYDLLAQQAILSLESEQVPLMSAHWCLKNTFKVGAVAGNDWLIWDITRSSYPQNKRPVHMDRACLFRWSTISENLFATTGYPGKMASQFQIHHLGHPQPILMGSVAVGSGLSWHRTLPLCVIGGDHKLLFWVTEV
# UniProt Q02218: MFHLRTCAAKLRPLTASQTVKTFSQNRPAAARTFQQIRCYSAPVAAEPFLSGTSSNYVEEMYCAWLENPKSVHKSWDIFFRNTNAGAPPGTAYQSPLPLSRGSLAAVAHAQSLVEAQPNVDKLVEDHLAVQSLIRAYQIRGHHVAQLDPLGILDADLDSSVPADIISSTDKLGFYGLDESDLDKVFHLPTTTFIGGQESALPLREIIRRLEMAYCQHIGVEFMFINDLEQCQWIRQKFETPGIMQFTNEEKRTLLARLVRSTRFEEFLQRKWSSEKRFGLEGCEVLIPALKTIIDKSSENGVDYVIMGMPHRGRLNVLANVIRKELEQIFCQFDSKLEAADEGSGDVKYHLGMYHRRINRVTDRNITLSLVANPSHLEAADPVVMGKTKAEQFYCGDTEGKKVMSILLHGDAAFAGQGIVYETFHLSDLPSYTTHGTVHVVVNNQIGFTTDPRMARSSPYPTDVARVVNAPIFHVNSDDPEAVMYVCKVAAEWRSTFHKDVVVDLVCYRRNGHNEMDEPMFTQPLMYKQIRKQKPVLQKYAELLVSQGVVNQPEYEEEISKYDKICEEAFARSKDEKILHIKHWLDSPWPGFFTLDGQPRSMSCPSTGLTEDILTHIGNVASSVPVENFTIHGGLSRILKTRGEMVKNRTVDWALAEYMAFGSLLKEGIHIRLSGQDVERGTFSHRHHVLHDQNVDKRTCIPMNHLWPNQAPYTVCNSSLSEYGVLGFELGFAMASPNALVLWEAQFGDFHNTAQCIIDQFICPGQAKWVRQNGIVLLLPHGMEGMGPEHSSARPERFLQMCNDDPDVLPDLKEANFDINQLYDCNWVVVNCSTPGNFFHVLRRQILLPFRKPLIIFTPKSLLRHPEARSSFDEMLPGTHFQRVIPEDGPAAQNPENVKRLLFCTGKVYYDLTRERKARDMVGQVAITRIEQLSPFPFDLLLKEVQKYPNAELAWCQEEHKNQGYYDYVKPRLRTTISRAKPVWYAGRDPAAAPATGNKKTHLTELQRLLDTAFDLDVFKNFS
# UniProt Q96E52: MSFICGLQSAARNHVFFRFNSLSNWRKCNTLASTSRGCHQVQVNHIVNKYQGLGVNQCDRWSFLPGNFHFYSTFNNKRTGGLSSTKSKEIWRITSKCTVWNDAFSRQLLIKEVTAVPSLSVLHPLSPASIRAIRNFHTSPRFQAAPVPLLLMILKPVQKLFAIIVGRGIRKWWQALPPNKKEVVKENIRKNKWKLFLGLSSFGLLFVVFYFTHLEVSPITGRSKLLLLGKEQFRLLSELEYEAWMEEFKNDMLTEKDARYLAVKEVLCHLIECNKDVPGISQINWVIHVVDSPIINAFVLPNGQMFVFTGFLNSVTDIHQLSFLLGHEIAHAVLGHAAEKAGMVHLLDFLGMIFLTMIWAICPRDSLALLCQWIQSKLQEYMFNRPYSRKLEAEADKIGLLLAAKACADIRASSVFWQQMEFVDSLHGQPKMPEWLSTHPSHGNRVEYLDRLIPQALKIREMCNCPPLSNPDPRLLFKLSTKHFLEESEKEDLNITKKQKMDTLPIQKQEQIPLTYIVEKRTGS
# UniProt O96013: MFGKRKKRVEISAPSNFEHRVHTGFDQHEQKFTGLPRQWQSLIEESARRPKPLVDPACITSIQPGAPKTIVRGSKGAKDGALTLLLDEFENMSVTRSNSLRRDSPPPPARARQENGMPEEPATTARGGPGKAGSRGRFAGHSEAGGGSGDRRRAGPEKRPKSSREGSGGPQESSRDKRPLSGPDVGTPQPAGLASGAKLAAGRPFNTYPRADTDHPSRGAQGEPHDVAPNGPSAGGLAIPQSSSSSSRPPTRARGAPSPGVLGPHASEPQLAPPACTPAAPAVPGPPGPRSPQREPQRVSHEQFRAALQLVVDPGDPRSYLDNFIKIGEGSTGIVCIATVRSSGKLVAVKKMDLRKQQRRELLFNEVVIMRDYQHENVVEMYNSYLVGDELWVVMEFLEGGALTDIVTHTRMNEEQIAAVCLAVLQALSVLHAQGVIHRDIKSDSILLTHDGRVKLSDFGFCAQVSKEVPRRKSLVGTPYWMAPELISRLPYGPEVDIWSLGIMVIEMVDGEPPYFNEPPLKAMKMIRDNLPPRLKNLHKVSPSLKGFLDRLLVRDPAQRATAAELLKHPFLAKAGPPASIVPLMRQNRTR
# UniProt Q9UBD5: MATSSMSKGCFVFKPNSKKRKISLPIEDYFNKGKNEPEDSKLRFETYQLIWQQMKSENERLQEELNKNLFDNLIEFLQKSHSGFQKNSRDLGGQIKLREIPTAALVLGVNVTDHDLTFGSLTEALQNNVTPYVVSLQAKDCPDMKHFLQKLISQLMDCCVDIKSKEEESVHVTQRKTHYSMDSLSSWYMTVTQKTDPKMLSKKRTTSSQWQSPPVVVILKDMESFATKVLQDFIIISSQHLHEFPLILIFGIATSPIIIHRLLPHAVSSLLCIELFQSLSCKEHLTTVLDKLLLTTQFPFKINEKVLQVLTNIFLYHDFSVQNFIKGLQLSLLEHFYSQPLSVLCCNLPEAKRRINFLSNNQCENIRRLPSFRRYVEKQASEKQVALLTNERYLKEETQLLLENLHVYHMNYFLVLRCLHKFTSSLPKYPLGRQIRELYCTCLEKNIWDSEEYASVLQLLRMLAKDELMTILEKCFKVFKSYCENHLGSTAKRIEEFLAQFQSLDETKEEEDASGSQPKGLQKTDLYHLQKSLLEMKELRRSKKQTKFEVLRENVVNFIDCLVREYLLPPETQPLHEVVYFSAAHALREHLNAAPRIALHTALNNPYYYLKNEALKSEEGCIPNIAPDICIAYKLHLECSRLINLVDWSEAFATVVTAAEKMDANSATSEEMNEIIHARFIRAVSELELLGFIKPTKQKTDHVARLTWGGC
# UniProt Q86WC4: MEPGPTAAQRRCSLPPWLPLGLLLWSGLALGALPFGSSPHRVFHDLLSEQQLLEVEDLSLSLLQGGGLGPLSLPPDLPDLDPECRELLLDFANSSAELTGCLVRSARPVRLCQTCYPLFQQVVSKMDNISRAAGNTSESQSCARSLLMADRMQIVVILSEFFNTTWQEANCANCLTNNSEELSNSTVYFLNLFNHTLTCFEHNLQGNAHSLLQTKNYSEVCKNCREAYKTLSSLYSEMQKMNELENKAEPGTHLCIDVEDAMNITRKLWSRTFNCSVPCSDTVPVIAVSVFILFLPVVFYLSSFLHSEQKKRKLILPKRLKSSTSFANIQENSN
# UniProt Q9UQ80: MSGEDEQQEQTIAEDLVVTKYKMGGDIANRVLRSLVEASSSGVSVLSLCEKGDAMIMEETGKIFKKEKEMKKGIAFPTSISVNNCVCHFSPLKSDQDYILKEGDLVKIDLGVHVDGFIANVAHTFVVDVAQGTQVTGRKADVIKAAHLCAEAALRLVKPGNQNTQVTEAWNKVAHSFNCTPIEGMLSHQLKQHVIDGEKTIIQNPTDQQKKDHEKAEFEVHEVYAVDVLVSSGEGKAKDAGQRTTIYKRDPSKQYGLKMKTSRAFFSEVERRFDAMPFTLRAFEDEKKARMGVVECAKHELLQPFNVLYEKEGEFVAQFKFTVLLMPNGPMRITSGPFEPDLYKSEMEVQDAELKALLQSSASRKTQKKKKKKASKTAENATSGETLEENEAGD
# UniProt P22059, whole entry, looked up: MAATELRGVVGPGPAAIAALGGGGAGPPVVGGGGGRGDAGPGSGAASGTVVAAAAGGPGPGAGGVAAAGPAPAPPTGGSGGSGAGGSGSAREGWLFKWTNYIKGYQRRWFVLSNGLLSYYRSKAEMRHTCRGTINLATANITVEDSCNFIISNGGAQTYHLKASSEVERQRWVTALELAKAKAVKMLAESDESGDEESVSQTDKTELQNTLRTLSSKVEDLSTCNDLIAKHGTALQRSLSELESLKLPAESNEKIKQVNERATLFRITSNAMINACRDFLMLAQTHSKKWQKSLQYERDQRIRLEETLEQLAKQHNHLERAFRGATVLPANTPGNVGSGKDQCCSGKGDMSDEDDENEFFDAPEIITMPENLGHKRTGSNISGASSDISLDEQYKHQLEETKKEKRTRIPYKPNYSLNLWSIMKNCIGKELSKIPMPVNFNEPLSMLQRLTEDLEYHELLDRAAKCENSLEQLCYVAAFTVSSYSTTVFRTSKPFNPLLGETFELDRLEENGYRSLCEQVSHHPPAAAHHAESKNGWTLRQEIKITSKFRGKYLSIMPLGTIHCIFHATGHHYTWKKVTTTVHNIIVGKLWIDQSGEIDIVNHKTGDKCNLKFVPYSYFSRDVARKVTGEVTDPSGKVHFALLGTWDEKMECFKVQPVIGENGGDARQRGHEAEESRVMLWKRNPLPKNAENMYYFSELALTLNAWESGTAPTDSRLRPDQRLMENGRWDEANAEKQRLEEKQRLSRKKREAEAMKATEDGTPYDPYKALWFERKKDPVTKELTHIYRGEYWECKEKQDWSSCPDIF
# UniProt Q5JRK9: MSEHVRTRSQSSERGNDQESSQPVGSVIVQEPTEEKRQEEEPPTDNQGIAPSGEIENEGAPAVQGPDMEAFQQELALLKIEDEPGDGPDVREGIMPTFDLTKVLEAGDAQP
# The list shows a part of the results.
# Assays:
# Test in all cases: log2 fold change, soluble protein after heating vs DMSO (PISA); higher = thermal stabilisation; K562 lysate, 10 uM; active = over 0.2 and 3.5 SD of the protein, either way, in both replicates (recomputed)
# alvocidib = compound: CN1CC[C@H](c2c(O)cc(O)c3c(=O)cc(-c4ccccc4Cl)oc23)[C@H](O)C1 [alvocidib]
# Procedure, shortened: (§1)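 K562 pellets were dounce-homogenised in PBS pH 7.4 with 1 mM MgCl2, and the crude extract at 1 mg/mL protein was treated with 10 μM compound for 30 min. Aliquots were heated for 3 min across 48°C-58°C, pooled, and brought to 0.5% NP-40 at 4°C; soluble protein was the supernatant after 21,000xg for 90 min. Soluble protein was quantified by TMTpro 16plex LC-MS/MS with channel sums equalised, and reported as log2 fold change in thermal stability against DMSO controls, with values from duplicates.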
# Tubastatin A = compound: CN1CCc2c(c3ccccc3n2Cc2ccc(C(=O)NO)cc2)C1 [Tubastatin A]
# Procedure, shortened: as §1
# [1] = compound: CNC(=O)C1=CC=CC=C1NC2=NC(=NC=C2Cl)NC3=C(C=C(C=C3)N4CCOCC4)OC
# Procedure, shortened: as §1
# defactinib = compound: CNC(=O)c1ccc(Nc2ncc(C(F)(F)F)c(NCc3nccnc3N(C)S(C)(=O)=O)n2)cc1 [defactinib]
# Procedure, shortened: as §1
# [2] = compound: CNc1nc(-c2ccc3c(N)n[nH]c3c2)cc(N2C[C@@H](C(=O)NC3CCCCC3)CC[C@H]2C)n1
# Procedure, shortened: as §1
# encorafenib = compound: COC(=O)N[C@@H](C)CNc1nccc(-c2cn(C(C)C)nc2-c2cc(Cl)cc(NS(C)(=O)=O)c2F)n1 [encorafenib]
# Procedure, shortened: as §1
# [3] = compound: COC(=O)[C@H](CCSC)NC(=O)C1=C(C=C(C=C1)NC[C@H](CS)N)C2=CC=CC=C2
# Procedure, shortened: as §1
# alisertib = compound: COc1cc(Nc2ncc3c(n2)-c2ccc(Cl)cc2C(c2c(F)cccc2OC)=NC3)ccc1C(=O)O [alisertib]
# Procedure, shortened: as §1
# [4] = compound: COc1cc2nc(-c3cc(F)ccc3O)nc(N[C@@H]3CNC[C@H]3C(C)(C)O)c2cc1OC
# Procedure, shortened: as §1
# gefitinib = compound: COc1cc2ncnc(Nc3ccc(F)c(Cl)c3)c2cc1OCCCN1CCOCC1 [gefitinib]
# Procedure, shortened: as §1
Target,log2 fold change (alvocidib),log2 fold change (Tubastatin A),log2 fold change [1],log2 fold change (defactinib),log2 fold change [2],log2 fold change (encorafenib),log2 fold change [3],log2 fold change (alisertib),log2 fold change [4],log2 fold change (gefitinib)
OBSL1 (UniProt O75147),inactive: -0.005,inactive: -0.034,inactive: 0.054,inactive: 0.057,inactive: 0.054,inactive: 0.017,inactive: 0.063,inactive: 0.129,inactive: 0.144,inactive: -0.061
PAFAH2 (UniProt Q99487),inactive: -0.05,inactive: 0.033,inactive: 0.02,inactive: 0.129,inactive: 0.063,inactive: 0.021,inactive: -0.013,inactive: 0.064,inactive: 0.3,inactive: 0
OGT (UniProt O15294),inactive: 0.045,inactive: -0.129,inactive: 0.054,inactive: 0.018,inactive: 0.019,inactive: 0.043,inactive: 0.121,inactive: 0.01,inactive: 0.007,inactive: -0.015
NXF1 (UniProt Q9UBU9),inactive: 0.027,inactive: -0.096,inactive: 0.083,inactive: -0.034,inactive: 0.038,inactive: -0.001,inactive: 0.17,inactive: 0,inactive: 0.057,inactive: -0.017
OGFOD2 (UniProt Q6N063),inactive: 0.029,inactive: 0.033,inactive: 0.059,inactive: 0.015,inactive: -0.125,inactive: -0.054,active: 0.223,inactive: 0.009,inactive: -0.014,inactive: -0.065
OARD1 (UniProt Q9Y530),inactive: -0.003,inactive: -0.097,inactive: 0,inactive: 0.037,inactive: -0.11,inactive: 0.011,inactive: 0.018,inactive: 0.011,inactive: 0.028,inactive: -0.014
NUP85 (UniProt Q9BW27),inactive: -0.012,inactive: -0.019,inactive: -0.015,inactive: -0.009,inactive: 0.013,inactive: 0.04,inactive: -0.121,inactive: 0,inactive: 0.021,inactive: 0.014
PAN2 isoform 2 (UniProt Q504Q3),inactive: -0.023,inactive: -0.025,inactive: -0.018,inactive: -0.099,inactive: -0.046,inactive: 0.08,inactive: -0.041,inactive: 0,inactive: -0.043,inactive: -0.044
OXCT1 (UniProt P55809),inactive: 0.042,inactive: 0.023,inactive: -0.004,inactive: -0.008,inactive: 0.005,inactive: 0.001,inactive: 0.042,inactive: -0.026,inactive: -0.01,inactive: -0.008
PAK1 (UniProt Q13153),inactive: -0.023,inactive: 0.026,inactive: 0.011,inactive: -0.006,inactive: 0.044,inactive: -0.012,inactive: 0.023,inactive: 0.016,inactive: 0.02,inactive: -0.06
NUP37 (UniProt Q8NFH4),inactive: -0.02,inactive: -0.038,inactive: 0.001,inactive: -0.012,inactive: -0.032,inactive: 0,inactive: -0.016,inactive: 0.023,inactive: 0.022,inactive: 0.011
OGDH isoform 2 (UniProt Q02218),inactive: 0.002,,,,,,,,,
PANK1 (UniProt Q8TE04),inactive: 0.002,inactive: 0.025,inactive: 0.051,inactive: -0.082,inactive: -0.076,inactive: 0.312,inactive: 0.173,inactive: 0.001,inactive: -0.096,inactive: 0.072
OMA1 (UniProt Q96E52),inactive: -0.033,inactive: -0.021,inactive: -0.009,inactive: 0.009,inactive: -0.005,inactive: -0.025,inactive: -0.125,inactive: -0.01,inactive: -0.016,inactive: -0.008
PAK4 (UniProt O96013),inactive: -0.019,inactive: -0.038,inactive: 0.27,inactive: 0.441,inactive: -0.021,inactive: -0.173,inactive: -0.057,inactive: 0.002,inactive: 0.241,inactive: -0.027
ORC3 isoform 2 (UniProt Q9UBD5),inactive: 0.006,inactive: -0.155,inactive: 0.007,inactive: 0.022,inactive: 0.035,inactive: 0.02,inactive: 0.15,inactive: 0.001,inactive: -0.009,inactive: -0.019
OSTM1 (UniProt Q86WC4),inactive: -0.047,inactive: 0.047,inactive: -0.001,inactive: -0.104,inactive: -0.044,inactive: 0.016,inactive: -0.1,inactive: -0.038,inactive: 0.009,inactive: -0.048
OSBP2 (UniProt Q969R2),inactive: -0.211,inactive: 0.047,inactive: -0.102,inactive: 0.011,inactive: -0.032,inactive: 0.04,inactive: -0.1,inactive: 0.052,inactive: -0.033,inactive: 0.011
PA2G4 (UniProt Q9UQ80),inactive: 0.038,inactive: -0.021,inactive: -0.008,inactive: 0.023,inactive: -0.014,inactive: -0.011,inactive: 0.092,inactive: -0.003,inactive: -0.004,inactive: -0.038
PAFAH1B1 (UniProt P43034),inactive: 0.038,inactive: 0.02,inactive: -0.001,inactive: -0.006,inactive: -0.011,inactive: -0.004,inactive: -0.058,inactive: -0.018,inactive: -0.01,inactive: -0.014
NUP54 (UniProt Q7Z3B4),inactive: -0.031,inactive: -0.011,inactive: 0.015,inactive: -0.037,inactive: 0.013,inactive: 0.014,inactive: 0.194,inactive: -0.004,inactive: 0.016,inactive: -0.016
OSGEP (UniProt Q9NPF4),inactive: -0.062,inactive: 0,inactive: -0.047,inactive: 0,inactive: 0.03,inactive: -0.008,inactive: 0.016,inactive: 0.045,inactive: 0.007,inactive: -0.032
OXR1 isoform 7 (UniProt Q8N573),inactive: -0.034,,,,,,,,,
PACSIN2 (UniProt Q9UNF0),inactive: 0.023,inactive: -0.004,inactive: 0.028,inactive: -0.004,inactive: -0.021,inactive: -0.004,inactive: 0.17,inactive: -0.003,inactive: -0.012,inactive: 0.016
NUP160 (UniProt Q12769),inactive: 0.029,inactive: -0.143,inactive: 0.045,inactive: 0.004,inactive: -0.03,inactive: 0.059,inactive: -0.195,inactive: 0.015,inactive: 0.004,inactive: 0.031
OTULIN (UniProt Q96BN8),inactive: 0.021,inactive: -0.067,inactive: -0.029,inactive: 0.015,inactive: -0.022,inactive: 0.006,inactive: -0.034,inactive: 0.009,inactive: 0.017,inactive: 0.008
OSBP (UniProt P22059),inactive: 0,inactive: 0.06,inactive: -0.193,inactive: -0.009,inactive: -0.155,inactive: 0.017,inactive: 0.001,inactive: 0.026,inactive: 0.042,inactive: -0.045
OXR1 isoform 2 (UniProt Q8N573),inactive: 0.037,inactive: -0.037,,,,,,,,
OGFOD3 (UniProt Q6PK18),inactive: 0.011,inactive: 0.048,inactive: -0.019,inactive: -0.027,inactive: 0.009,inactive: 0.06,inactive: -0.061,inactive: 0.053,inactive: 0.068,inactive: 0.012
PAGE2B (UniProt Q5JRK9),inactive: 0.059,inactive: 0.175,inactive: 0.097,inactive: 0.253,inactive: 0.072,inactive: 0.089,inactive: -0.001,inactive: 0.053,inactive: -0.091,inactive: -0.051

# As entered above.
# Value for OGT (UniProt O15294) under log2 fold change [4]: inactive: 0.007
# Value for OXCT1 (UniProt P55809) under log2 fold change (alvocidib): inactive: 0.042

# A different layout for part of the listing above:
Target	log2 fold change (alvocidib)	log2 fold change (Tubastatin A)	log2 fold change [1]	log2 fold change (defactinib)	log2 fold change [2]	log2 fold change (encorafenib)	log2 fold change [3]	log2 fold change (alisertib)	log2 fold change [4]	log2 fold change (gefitinib)
NUP54 (UniProt Q7Z3B4)	inactive: -0.031	inactive: -0.011	inactive: 0.015	inactive: -0.037	inactive: 0.013	inactive: 0.014	inactive: 0.194	inactive: -0.004	inactive: 0.016	inactive: -0.016
NUP160 (UniProt Q12769)	inactive: 0.029	inactive: -0.143	inactive: 0.045	inactive: 0.004	inactive: -0.03	inactive: 0.059	inactive: -0.195	inactive: 0.015	inactive: 0.004	inactive: 0.031
